In doi:10.1101/774158:
For at least one entry, the source does not settle the construct or the ends of the probe. For part of these data: Results from cells or extracts need not show a direct contact. For part of these data: At least one verdict rests on a figure or table, not on a statement of the authors.

By UniProt entry, the sequences of proteins in these tests, tags left out. Residues count along the entry.
UniProt P46099, whole entry E321K: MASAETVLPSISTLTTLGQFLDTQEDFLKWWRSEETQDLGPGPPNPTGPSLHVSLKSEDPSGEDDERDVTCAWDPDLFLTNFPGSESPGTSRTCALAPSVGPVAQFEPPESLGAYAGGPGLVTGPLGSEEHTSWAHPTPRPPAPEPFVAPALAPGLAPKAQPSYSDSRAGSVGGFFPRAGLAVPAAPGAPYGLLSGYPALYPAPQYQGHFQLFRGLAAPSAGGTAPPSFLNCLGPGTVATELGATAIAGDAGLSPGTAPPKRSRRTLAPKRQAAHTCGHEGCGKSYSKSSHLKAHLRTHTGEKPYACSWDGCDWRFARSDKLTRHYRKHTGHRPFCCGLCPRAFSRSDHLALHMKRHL
UniProt P46099, 275-358 E321K: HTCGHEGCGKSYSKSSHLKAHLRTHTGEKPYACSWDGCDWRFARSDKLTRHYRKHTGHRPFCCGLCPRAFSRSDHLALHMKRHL

Assays:
CDA-KLF1 E321K (mouse) [1] = molecular target: CDA-KLF1 E321K (mouse) (UniProt P46099); test: EMSA; settings: protein in a lysate after overexpression
CDA-KLF1 E321K (mouse) [2] = molecular target: CDA-KLF1 E321K (mouse) (UniProt P46099); test: competition with a labelled probe; settings: cold 100x vs E2F2-1 and 9xG probes; protein in a lysate after overexpression
[3] = molecular target: CDA-ZnF-KLF1 E321K (mouse) (UniProt P46099); test: EMSA

Sequence | binding result (CDA-KLF1 E321K (mouse) [1]) | binding result (CDA-KLF1 E321K (mouse) [2]) | binding result [3]
AGCTAAGGGGGGGGGCA / AGCTTGCCCCCCCCCTT [9xG (CDA-GGG)] | binds | binds | 
AGCTATGGGGGGGCGCC / AGCTGGCGCCCCCCCAT [CDA-GCG] | binds |  | binds
AGCTATTGGGGGAGGCC / AGCTGGCCTCCCCCAAT [CDA-AGG] | binds |  | binds
AGCTATTGGGGGCATCC / AGCTGGATGCCCCCAAT [CDA-CAT] | binds |  | binds
AGCTATTGGGGGCGTCC / AGCTGGACGCCCCCAAT [CDA-CGT] | binds |  | binds
AGCTATTGGGGGTAACC / AGCTGGTTACCCCCAAT [CDA-TAA] | binds |  | binds
AGCTATTGGGGGTCACC / AGCTGGTGACCCCCAAT [CDA-TCA] | binds |  | binds
AGCTGATGGGGGTGGGC / AGCTGCCCACCCCCATC [E2F2-1] | binds | binds | 
AGCTGCGGGGGGGTGCC / AGCTGGCACCCCCCCGC [CDA-GTG] | binds |  | binds
